# Assay: general procedure: Fmoc solid-phase peptide synthesis; DCC/HOBt
# Settings: whole synthesis
substance,measurement,setting,value
GLP-1 (7-36) amide,final HPLC purity,,greater than 99%
same,final purity (method not given),HPLC,85% pure
